Reference: PMC5114553
These are yes or no findings as the source states them, for the method shown. Binding seen in cells or lysates may run through a third protein.

Sequences of proteins named here, by UniProt entry; tags and fusion partners are left off. A change or cut given only in a name is not applied to a line headed by its entry.
UniProt P54830: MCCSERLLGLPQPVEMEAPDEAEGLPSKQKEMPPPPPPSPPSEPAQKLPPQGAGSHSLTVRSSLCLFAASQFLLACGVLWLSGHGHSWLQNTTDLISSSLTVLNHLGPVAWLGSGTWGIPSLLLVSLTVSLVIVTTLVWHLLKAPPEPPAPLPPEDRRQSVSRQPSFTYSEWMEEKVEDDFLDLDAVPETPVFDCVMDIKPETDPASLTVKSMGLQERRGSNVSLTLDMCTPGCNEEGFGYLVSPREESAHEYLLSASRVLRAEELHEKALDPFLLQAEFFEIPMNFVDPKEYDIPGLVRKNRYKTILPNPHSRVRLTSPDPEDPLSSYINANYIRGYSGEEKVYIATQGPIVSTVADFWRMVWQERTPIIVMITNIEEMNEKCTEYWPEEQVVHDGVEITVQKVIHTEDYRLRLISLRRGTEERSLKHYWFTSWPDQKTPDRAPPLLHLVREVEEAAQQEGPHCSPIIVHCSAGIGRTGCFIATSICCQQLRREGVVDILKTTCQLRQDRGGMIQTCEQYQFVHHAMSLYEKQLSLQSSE

Molecular target: GST-STEP46 (substrate-trapping mutant) (UniProt P54830)
Experiment: pull-down; GST-STEP fusion proteins (1 μg) on glutathione-sepharose 4B beads incubated with mouse hippocampal synaptosomal lysates (100 μg) in co-IP buffer overnight at 4 °C; blots with selective antibodies; only the target purified

binding: no binding
Substance: NMDA receptor subunit GluN2A (from UniProt P35436 23-1464)
